From patent US20110059142A1, “ENCAPSULATION OF BIOLOGICALLY ACTIVE AGENTS” (priority 2008, published 2011)
Some results were stated once for a whole list of compounds, not compound by compound.

Type: in vivo
Conditions: previous studies

Compound	time at which highest drug levels in the brain were achieved	time of delivery after injection
CN(C)C(=O)C(CCN1CCC(O)(c2ccc(Cl)cc2)CC1)(c1ccccc1)c1ccccc1 [loperamide]	≤ 5 min	2 to 3 min
dalargin (YAGFLR; Humanised sequence of mus musculus and homo sapiens) [9: YAGFLR]	≤ 5 min	2 to 3 min
